# Assay results from PubChem BioAssay AID2685 (National Center for Advancing Translational Sciences (NCATS), 2010).
# Some of the results follow. The main result of the screen is listed elsewhere. These columns were measured beside it and carry no call. The list favours compounds with an active or inconclusive main result. The note in brackets gives the kind of curve behind each potency; many fits are weak.
# Test: qHTS Assay for Lipid Storage Modulators in Drosophila S3 Cells;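 for cell number change: cells counted by Cell Tracker Red CMTPX staining in the red channel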
# Details: BODIPY lipid droplet fluorescence, 18-24 h; for cell number change: measured here: cell count max response, cells fed with added oleic acid
# Method in brief: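 Laser-scanning cytometry quantifies lipid droplet accumulation (500–530 nm total intensity; droplet/cell object ratio) in oleic acid-fed (400 uM added) Drosophila S3 cells treated with a concentration series. 20 uM Triacsin C defined 100% inhibition.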
# [1] = measured here: cell number channel AC50, cells fed with added oleic acid
# [2] = measured here: lipid fluorescence (Fed channel) AC50, cells fed with added oleic acid
structure (smiles),measurement,setting,value
Cc1ccc(-c2c[n+](CC(=O)c3ccc(Br)cc3)c3n2CCCCC3)cc1,cell number change,,-66%
same,AC50,[1],"18.4 µM [falling, single point]"
same,AC50,[2],"16.4 µM [falling, single point]"
CS(=O)(=O)Nc1ccc(C(=O)Nc2ccccc2Cl)cc1,cell number change,,112%
same,AC50,[1],"29.1 µM [rising, single point]"
COc1ccc(C(CNC(=O)c2oc3cc(C)c(C)cc3c2C)N2CCCCC2)cc1 (stereo unspecified),cell number change,,11%
Cc1cc(NS(=O)(=O)c2ccc(NC(=O)/C=C/c3ccccc3)cc2)no1,cell number change,,7.66%
same,AC50,[2],"29.1 µM [rising, single point]"
N#Cc1c2c(c(-c3ccccc3Cl)[nH]c1=S)CCCC2,cell number change,,-18.2%
same,AC50,[1],"0.092 µM [falling, full curve, poor fit]"
C/C(=N\NC(=O)c1ccc(CSc2nncn2C)cc1)c1ccc(C#N)cc1,cell number change,,15.9%
same,AC50,[2],"1.46 µM [rising, partial curve, poor fit]"
COc1ccc(OC)c(C(=O)c2coc3ccc(OCC(=O)O)cc23)c1,cell number change,,-34.6%
same,AC50,[1],"3.26 µM [falling, full curve]"
same,AC50,[2],"3.66 µM [falling, full curve]"
O=C(NCc1ccco1)c1csc2c1CCCC2,cell number change,,-20%
same,AC50,[2],"29.1 µM [falling, single point]"
CN(CC(=O)Nc1ccccc1Cl)C(=O)c1ccc(N2CCCCCC2)c([N+](=O)[O-])c1,cell number change,,13.5%
same,AC50,[2],"0.0731 µM [rising, full curve, poor fit]"
CCCn1c(SCC(=O)Nc2sc(C)c(C)c2C(=O)OCC)nc2c1c(=O)n(C)c(=O)n2C,cell number change,,15.3%
same,AC50,[2],"0.164 µM [rising, full curve, poor fit]"
O=C(c1ccco1)N1CCn2cccc2C1c1ccccc1 (stereo unspecified),cell number change,,-7.73%
same,AC50,[2],"6.51 µM [rising, partial curve, poor fit]"
O=C1C=C(c2ccc(OC(F)(F)F)cc2)C[C@@H](c2ccc(Cl)cc2)C1,cell number change,,1.96%
same,AC50,[1],"1.46 µM [falling, partial curve]"
O=C(CCNC(=O)c1ccccc1Cl)Nc1ccncc1,cell number change,,4.41%
CN1CCC(=NOc2ccc([N+](=O)[O-])cc2)CC1,cell number change,,5.58%
same,AC50,[2],"6.51 µM [falling, single point]"
CN1CCN(C(=O)/C=C/c2cccc(Cl)c2)CC1,cell number change,,-22.8%
same,AC50,[2],"29.1 µM [falling, single point]"
O=C(c1ccco1)N1CCN(C(c2ccccc2Cl)c2nnnn2CC2CCCO2)CC1 (stereo unspecified),cell number change,,0.337%
same,AC50,[2],"6.51 µM [rising, single point]"
COC1=C(Nc2ccccc2)C(=O)c2ccccc2C1=O,cell number change,,-65.7%
same,AC50,[1],"29.1 µM [falling, single point]"
same,AC50,[2],"14.6 µM [falling, partial curve]"
COc1ccc(Oc2cc(C)c3cccc(C)c3n2)cc1,cell number change,,3.15%
same,AC50,[2],"29.1 µM [rising, single point]"
CC1(C)C(c2ccccc2)=[N+]([O-])CN1O,cell number change,,0.845%
COC(=O)CCN(C(=O)c1cc(OC)c(OC)c(OC)c1)c1ccccn1,cell number change,,-2.01%
same,AC50,[1],"0.0326 µM [falling, full curve, poor fit]"
same,AC50,[2],"25.9 µM [falling, partial curve, poor fit]"
Cc1ccc(NC(=O)NCCN2CCN(c3ccccc3)CC2)cc1Cl,cell number change,,70.8%
same,AC50,[1],"16.4 µM [rising, single point]"
Cc1ccc(CNC(=O)CO/N=C/c2ccc(C(C)(C)C)cc2)cc1,cell number change,,-45.5%
same,AC50,[1],"18.4 µM [falling, single point]"
same,AC50,[2],"23.1 µM [falling, single point]"
O=C(NCCN1CCN(C(=O)c2cccs2)CC1)C(=O)Nc1ccc(Br)cc1,AC50,[1],"0.651 µM [rising, partial curve, poor fit]"
same,AC50,[2],"8.2 µM [rising, partial curve]"
COc1ccccc1CC(=O)Nc1ccc([N+](=O)[O-])cc1OC,cell number change,,14.3%
CCOc1ccc2nc(NC(=O)C34CC5CC(CC(NC(C)=O)(C5)C3)C4)sc2c1,cell number change,,42.7%
same,AC50,[1],"29.1 µM [rising, single point]"
CCCc1nc2ccccc2c(C(=O)OCC(=O)c2ccc3c(c2)NC(=O)CO3)c1CC,AC50,[2],"6.51 µM [falling, single point]"
COCC(C)n1c(C)cc(C(=O)COC(=O)C2=NN(c3ccccc3)C(=O)CC2)c1C (stereo unspecified),cell number change,,21.2%
same,AC50,[2],"6.51 µM [falling, single point]"
COc1ccc(CCNC(=O)c2ccc3c(c2)SC2=NS(=O)(=O)CCN23)cc1,AC50,[2],"2.59 µM [rising, full curve, poor fit]"
CCOC(=O)c1ccc2ncc(C(=O)OCC)c(Nc3ccc(N4CCOCC4)cc3)c2c1,cell number change,,0.801%
same,AC50,[1],"3.66 µM [falling, single point]"
same,AC50,[2],"4.61 µM [falling, partial curve]"
COc1ccc(C2C(C(=O)c3ccccc3)=C(C)Nc3nc4ccccc4n32)c(OC)c1 (stereo unspecified),cell number change,,-9.89%
same,AC50,[2],"0.92 µM [rising, full curve, poor fit]"
COc1ccc(CN2CCc3ccc(NC(=O)c4ccncc4)cc3C2)c(F)c1,AC50,[1],"0.291 µM [rising, partial curve]"
COc1ccc(CCNC(=O)c2ccccc2NC(=O)C2=C(C)OCCS2)cc1OC,cell number change,,10.6%
same,AC50,[2],"25.9 µM [rising, partial curve]"
O=C(NCCCc1ccccc1)c1ccc(CS(=O)Cc2ccccc2Cl)o1 (stereo unspecified),cell number change,,10.7%
same,AC50,[2],"6.51 µM [rising, single point]"
CC(=O)N(C(C)=O)N1C(=O)C2C3c4ccccc4C(c4ccccc43)C2C1=O (stereo unspecified),cell number change,,-21.3%
Cc1cc(C)cc(NC(=O)CSc2ccc(-c3cccs3)nn2)c1,cell number change,,-27.8%
same,AC50,[2],"25.9 µM [falling, single point]"
CCN(C(=O)c1cc2c(=O)[nH]c3ccc(C)cc3c2s1)c1ccccc1F,AC50,[2],"20.6 µM [rising, single point]"
CS(=O)(=O)N(CCc1ccccc1)CC(=O)N1CCN(c2ccc(F)cc2)CC1,cell number change,,-11.7%
same,AC50,[2],"29.1 µM [falling, single point]"

# A different layout for some results above.
structure (smiles)	measurement	setting	value
Cc1cc(NS(=O)(=O)c2ccc(NC(=O)/C=C/c3ccccc3)cc2)no1	AC50	[2]	29.1 µM [rising, single point]
N#Cc1c2c(c(-c3ccccc3Cl)[nH]c1=S)CCCC2	cell number change		-18.2%
same	AC50	[1]	0.092 µM [falling, full curve, poor fit]
C/C(=N\NC(=O)c1ccc(CSc2nncn2C)cc1)c1ccc(C#N)cc1	cell number change		15.9%
